Measurements taken from the supplement of paper PMC4604168 (melanoma cell lines).
The list shows a part of the results. Single values are uncertain, as repeats are few or missing.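 Imaging used 1,536-well plates; nuclei positive for cleaved PARP by antibody were divided by total DNA-stained nuclei to yield the apoptosis fraction. Doses for screening kept most cells viable, and cell lines differ markedly in resting and induced cleaved-PARP levels.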

Experiments:
Experiment in all cases: cleaved PARP positive nuclei fraction relative to DMSO control; melanoma cells; higher = more apoptosis
Settings in all cases: library dose: low library concentration; 72 h
501Mel = tested on: 501Mel
A101D = tested on: A101D
A2058 = tested on: A2058
A375 = tested on: A375
C32 = tested on: C32
CBRC008 = tested on: CBRC008 (line from a melanoma biopsy)
CBRC013 = tested on: CBRC013 (line from a melanoma biopsy)
CBRC014 = tested on: CBRC014 (line from a melanoma biopsy)
CBRC016 = tested on: CBRC016 (line from a melanoma biopsy)
CBRC017 = tested on: CBRC017 (line from a melanoma biopsy)
COLO792 = tested on: COLO792
COLO800 = tested on: COLO800
COLO829 = tested on: COLO829
G361 = tested on: G361
IPC-298 = tested on: IPC-298
IST-MEL1 = tested on: IST-MEL1
LB2518-MEL = tested on: LB2518-MEL
LOXIMVI = tested on: LOXIMVI
MEL-HO = tested on: MEL-HO

| SMILES | cleaved PARP positive nuclei fraction (501Mel) [%] | cleaved PARP positive nuclei fraction (A101D) [%] | cleaved PARP positive nuclei fraction (A2058) [%] | cleaved PARP positive nuclei fraction (A375) [%] | cleaved PARP positive nuclei fraction (C32) [%] | cleaved PARP positive nuclei fraction (CBRC008) [%] | cleaved PARP positive nuclei fraction (CBRC013) [%] | cleaved PARP positive nuclei fraction (CBRC014) [%] | cleaved PARP positive nuclei fraction (CBRC016) [%] | cleaved PARP positive nuclei fraction (CBRC017) [%] | cleaved PARP positive nuclei fraction (COLO792) [%] | cleaved PARP positive nuclei fraction (COLO800) [%] | cleaved PARP positive nuclei fraction (COLO829) [%] | cleaved PARP positive nuclei fraction (G361) [%] | cleaved PARP positive nuclei fraction (IPC-298) [%] | cleaved PARP positive nuclei fraction (IST-MEL1) [%] | cleaved PARP positive nuclei fraction (LB2518-MEL) [%] | cleaved PARP positive nuclei fraction (LOXIMVI) [%] | cleaved PARP positive nuclei fraction (MEL-HO) [%] |
| --- | --- | --- | --- | --- | --- | --- | --- | --- | --- | --- | --- | --- | --- | --- | --- | --- | --- | --- | --- |
| Cc1ccc(NC(=O)c2cccc(N(C)C)c2)cc1NC(=O)c1ccc(O)cc1 + Cn1cncc1[C@@](N)(c1ccc(Cl)cc1)c1ccc2c(c1)c(-c1cccc(Cl)c1)cc(=O)n2C [tipifarnib] (first compound 2 µM, partner dose 0.01 µM) | 220 | 93.3 | 155 | 249 | 122 | 132 | 96.4 | 116 | 123 | 87.8 | 80.3 | 151 | 63 | 105 | 52.3 | 102 | 126 | 39.2 | 96.3 |
| CO[C@@H]1[C@H](N(C)C(=O)c2ccccc2)C[C@H]2O[C@]1(C)n1c3ccccc3c3c4c(c5c6ccccc6n2c5c31)C(=O)NC4 [Midostaurin] + Cn1cncc1[C@@](N)(c1ccc(Cl)cc1)c1ccc2c(c1)c(-c1cccc(Cl)c1)cc(=O)n2C [tipifarnib] (first compound 0.08 µM, partner dose 0.01 µM) | 39.1 | 90.9 | 43.8 | 287 | 100 | 204 | 142 | 95 | 170 | 180 | 173 | 90.3 | 45.7 | 205 | 170 | 228 | 291 | 37.8 | 35.8 |
| Nc1cccc2c1CN(C1CCC(=O)NC1=O)C2=O (stereo not drawn) [lenalidomide] + OCCn1cc(-c2cnc3nnn(Cc4ccc5ncccc5c4)c3n2)cn1 [PF04217903] (first compound 1 µM, partner dose 1 µM) | 160 | 40.9 | 110 | 39.9 | 30.6 | 103 | 99.7 | 80.7 | 79.4 | 101 | 36.6 | 112 | 76.4 | 112 | 197 | 40.9 | 41 | 32.3 | 139 |
| C=CCNC1=C2C[C@@H](C)C[C@H](OC)[C@H](O)[C@@H](C)/C=C(\C)[C@H](OC(N)=O)[C@@H](OC)/C=C\C=C(/C)C(=O)NC(=CC1=O)C2=O [Tanespimycin] + COc1cc2c(Oc3ccc4[nH]c(C)cc4c3F)ncnc2cc1OCCCN1CCCC1 [cediranib] (first compound 0.002 µM, partner dose 0.4 µM) | 51.7 | 41.3 | 79.8 | 82 | 23.9 | 889 | 105 | 81.3 | 68.3 | 89.9 | 136 | 88.8 | 224 | 113 | 45.6 | 63.2 | 148 | 101 | 34.3 |
| Clc1ccc(Nc2nnc(Cc3ccncc3)c3ccccc23)cc1 [vatalanib] + Cn1cncc1[C@@](N)(c1ccc(Cl)cc1)c1ccc2c(c1)c(-c1cccc(Cl)c1)cc(=O)n2C [tipifarnib] (first compound 2 µM, partner dose 0.01 µM) | 90.2 | 296 | 149 | 467 | 159 | 164 | 135 | 138 | 143 | 113 | 131 | 57 | 75.7 | 70.8 | 52.6 | 47.2 | 110 | 135 | 96.1 |
| C#Cc1cccc(Nc2ncnc3cc(OCCOC)c(OCCOC)cc23)c1 [erlotinib] + Cc1ccc(NC(=O)c2cccc(N(C)C)c2)cc1NC(=O)c1ccc(O)cc1 [ZM336372] (first compound 0.8 µM, partner dose 2 µM) | 72.4 | 178 | 250 | 82.5 | 70.8 | 24.6 | 77.4 | 117 | 44.5 | 108 | 114 | 85.1 | 167 | 52.5 | 237 | 165 | 60.3 | 47.5 | 91.1 |
| Nc1cccc2c1CN(C1CCC(=O)NC1=O)C2=O (stereo not drawn) [lenalidomide] + Cc1cc(N2CCOCC2)cc2[nH]c(-c3c(NC[C@@H](O)c4cccc(Cl)c4)cc[nH]c3=O)nc12 [BMS536924] (first compound 1 µM, partner dose 0.2 µM) | 42.7 | 120 | 93.5 | 268 | 171 | 358 | 97.3 | 92.9 | 60.2 | 107 | 28.8 | 122 | 75.5 | 104 | 49.1 | 185 | 84.7 | 217 | 74.2 |
| Clc1ccc(Nc2nnc(Cc3ccncc3)c3ccccc23)cc1 [vatalanib] + NCC(=O)Nc1ccc(-n2nc(C(F)(F)F)cc2-c2ccc3c(ccc4ccccc43)c2)cc1 [OSU03012] (first compound 2 µM, partner dose 1 µM) | 478 | 83 | 117 | 6750 | 121 | 63.6 | 145 | 105 | 182 | 113 | 145 | 55.9 | 76.2 | 86.6 | 130 | 32.4 | 110 | 40.7 | 50.1 |
| Cc1nc(Nc2ncc(C(=O)Nc3c(C)cccc3Cl)s2)cc(N2CCN(CCO)CC2)n1 [dasatanib] + CO[C@@H]1[C@H](N(C)C(=O)c2ccccc2)C[C@H]2O[C@]1(C)n1c3ccccc3c3c4c(c5c6ccccc6n2c5c31)C(=O)NC4 [Midostaurin] (first compound 0.004 µM, partner dose 0.08 µM) | 76.3 | 66.2 | 88.3 | 159 | 224 | 155 | 101 | 89.4 | 154 | 154 | 102 | 72.8 | 210 | 186 | 100 | 59.3 | 102 | 91.6 | 158 |
| C=CCNC1=C2C[C@@H](C)C[C@H](OC)[C@H](O)[C@@H](C)/C=C(\C)[C@H](OC(N)=O)[C@@H](OC)/C=C\C=C(/C)C(=O)NC(=CC1=O)C2=O [Tanespimycin] + CO[C@@H]1[C@H](N(C)C(=O)c2ccccc2)C[C@H]2O[C@]1(C)n1c3ccccc3c3c4c(c5c6ccccc6n2c5c31)C(=O)NC4 [Midostaurin] (first compound 0.002 µM, partner dose 0.08 µM) | 95.3 | 66.6 | 68.4 | 43.5 | 187 | 97.6 | 102 | 83.7 | 116 | 89.8 | 131 | 77.4 | 107 | 108 | 93.9 | 209 | 44.6 | 53.3 | 99.7 |
| O=C(CCCCCCC(=O)Nc1ccccc1)NO [vorinostat] + NC(=O)Nc1cc(-c2cccc(F)c2)sc1C(=O)N[C@H]1CCCNC1 [AZD7762] (first compound 0.08 µM, partner dose 0.02 µM) | 164 | 170 | 34.2 | 130 | 69.1 | 109 | 96.9 | 91.4 | 143 | 108 | 113 | 97.5 | 123 | 76.7 | 91.5 | 93.6 | 51.9 | 43.5 | 131 |
| Clc1ccc(Nc2nnc(Cc3ccncc3)c3ccccc23)cc1 [vatalanib] + OCCn1cc(-c2cnc3nnn(Cc4ccc5ncccc5c4)c3n2)cn1 [PF04217903] (first compound 2 µM, partner dose 1 µM) | 97.3 | 154 | 36.4 | 52 | 207 | 56.7 | 96.2 | 128 | 111 | 117 | 74.8 | 95 | 97.1 | 68.8 | 147 | 48.9 | 96.6 | 28.9 | 234 |
| OCc1c[nH]c2ccccc12 [Indole-3-carbinol] + COc1cc(Nc2ncc(F)c(Nc3ccc4c(n3)NC(=O)C(C)(C)O4)n2)cc(OC)c1OC [Tamatinib] (first compound 0.8 µM, partner dose 0.4 µM) | 98.4 | 93.9 | 141 | 84.5 | 163 | 209 | 91.8 | 96.6 | 77.1 | 157 | 214 | 123 | 458 | 106 | 66.7 | 96.4 | 49.9 | 60.9 | 73.2 |
| C#Cc1cccc(Nc2ncnc3cc(OCCOC)c(OCCOC)cc23)c1 [erlotinib] + COc1cc2c(Oc3ccc4[nH]c(C)cc4c3F)ncnc2cc1OCCCN1CCCC1 [cediranib] (first compound 0.8 µM, partner dose 0.4 µM) | 100 | 38.3 | 17.3 | 124 | 107 | 193 | 202 | 103 | 76.4 | 93.8 | 120 | 79.4 | 97.4 | 125 | 132 | 184 | 18.5 | 33.3 | 144 |
| CO[C@@H]1[C@H](N(C)C(=O)c2ccccc2)C[C@H]2O[C@]1(C)n1c3ccccc3c3c4c(c5c6ccccc6n2c5c31)C(=O)NC4 [Midostaurin] + O=C(Nc1cccc(Cl)c1)Nc1ncc(CCNc2ncnc3ccsc23)s1 [SNS314] (first compound 0.08 µM, partner dose 0.0008 µM) | 218 | 113 | 72.6 | 202 | 161 | 157 | 107 | 158 | 254 | 175 | 248 | 234 | 85 | 101 | 88 | 70.8 | 114 | 113 | 47.7 |
| COCC[n+]1c2c(n(Cc3cnccn3)c1C)C(=O)c1ccccc1C2=O + Cn1cncc1[C@@](N)(c1ccc(Cl)cc1)c1ccc2c(c1)c(-c1cccc(Cl)c1)cc(=O)n2C [tipifarnib] (first compound 0.0004 µM, partner dose 0.01 µM) | 187 | 98.8 | 186 | 56.8 | 134 | 384 | 109 | 102 | 108 | 96.2 | 113 | 136 | 98.1 | 224 | 71.5 | 75.5 | 219 | 94.6 | 153 |
| Cn1c(Nc2ccc(C(F)(F)F)cc2)nc2cc(Oc3ccnc(-c4ncc(C(F)(F)F)[nH]4)c3)ccc21 + CC(C)(C)c1cnc(CSc2cnc(NC(=O)C3CCNCC3)s2)o1 [SNS-032] (first compound 0.08 µM, partner dose 0.01 µM) | 119 | 88.9 | 93.1 | 546 | 66.9 | 331 | 121 | 117 | 98.7 | 282 | 556 | 110 | 157 | 62.2 | 239 | 327 | 342 | 57.9 | 130 |

Reformatted with tabs: entries from further up
SMILES	cleaved PARP positive nuclei fraction (501Mel) [%]	cleaved PARP positive nuclei fraction (A101D) [%]	cleaved PARP positive nuclei fraction (A2058) [%]	cleaved PARP positive nuclei fraction (A375) [%]	cleaved PARP positive nuclei fraction (C32) [%]	cleaved PARP positive nuclei fraction (CBRC008) [%]	cleaved PARP positive nuclei fraction (CBRC013) [%]	cleaved PARP positive nuclei fraction (CBRC014) [%]	cleaved PARP positive nuclei fraction (CBRC016) [%]	cleaved PARP positive nuclei fraction (CBRC017) [%]	cleaved PARP positive nuclei fraction (COLO792) [%]	cleaved PARP positive nuclei fraction (COLO800) [%]	cleaved PARP positive nuclei fraction (COLO829) [%]	cleaved PARP positive nuclei fraction (G361) [%]	cleaved PARP positive nuclei fraction (IPC-298) [%]	cleaved PARP positive nuclei fraction (IST-MEL1) [%]	cleaved PARP positive nuclei fraction (LB2518-MEL) [%]	cleaved PARP positive nuclei fraction (LOXIMVI) [%]	cleaved PARP positive nuclei fraction (MEL-HO) [%]
Cc1nc(Nc2ncc(C(=O)Nc3c(C)cccc3Cl)s2)cc(N2CCN(CCO)CC2)n1 [dasatanib] + CO[C@@H]1[C@H](N(C)C(=O)c2ccccc2)C[C@H]2O[C@]1(C)n1c3ccccc3c3c4c(c5c6ccccc6n2c5c31)C(=O)NC4 [Midostaurin] (first compound 0.004 µM, partner dose 0.08 µM)	76.3	66.2	88.3	159	224	155	101	89.4	154	154	102	72.8	210	186	100	59.3	102	91.6	158
C=CCNC1=C2C[C@@H](C)C[C@H](OC)[C@H](O)[C@@H](C)/C=C(\C)[C@H](OC(N)=O)[C@@H](OC)/C=C\C=C(/C)C(=O)NC(=CC1=O)C2=O [Tanespimycin] + CO[C@@H]1[C@H](N(C)C(=O)c2ccccc2)C[C@H]2O[C@]1(C)n1c3ccccc3c3c4c(c5c6ccccc6n2c5c31)C(=O)NC4 [Midostaurin] (first compound 0.002 µM, partner dose 0.08 µM)	95.3	66.6	68.4	43.5	187	97.6	102	83.7	116	89.8	131	77.4	107	108	93.9	209	44.6	53.3	99.7
